{"sequences": {"note": "Sequences of proteins named here, by UniProt entry; tags and fusion partners are left off.", "UniProt O09106": "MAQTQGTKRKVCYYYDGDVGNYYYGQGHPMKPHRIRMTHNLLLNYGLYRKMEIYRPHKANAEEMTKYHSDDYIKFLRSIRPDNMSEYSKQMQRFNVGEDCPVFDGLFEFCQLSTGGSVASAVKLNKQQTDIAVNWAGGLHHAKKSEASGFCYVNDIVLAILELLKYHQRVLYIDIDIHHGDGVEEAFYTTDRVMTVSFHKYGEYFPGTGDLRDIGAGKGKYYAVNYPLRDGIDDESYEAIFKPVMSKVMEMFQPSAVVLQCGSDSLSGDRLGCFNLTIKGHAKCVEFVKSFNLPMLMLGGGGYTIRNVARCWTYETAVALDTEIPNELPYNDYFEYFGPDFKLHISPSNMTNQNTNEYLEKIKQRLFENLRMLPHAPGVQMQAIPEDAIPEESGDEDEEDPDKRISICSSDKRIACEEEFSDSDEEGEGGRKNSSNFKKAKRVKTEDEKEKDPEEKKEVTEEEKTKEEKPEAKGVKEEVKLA", "UniProt Q13547": "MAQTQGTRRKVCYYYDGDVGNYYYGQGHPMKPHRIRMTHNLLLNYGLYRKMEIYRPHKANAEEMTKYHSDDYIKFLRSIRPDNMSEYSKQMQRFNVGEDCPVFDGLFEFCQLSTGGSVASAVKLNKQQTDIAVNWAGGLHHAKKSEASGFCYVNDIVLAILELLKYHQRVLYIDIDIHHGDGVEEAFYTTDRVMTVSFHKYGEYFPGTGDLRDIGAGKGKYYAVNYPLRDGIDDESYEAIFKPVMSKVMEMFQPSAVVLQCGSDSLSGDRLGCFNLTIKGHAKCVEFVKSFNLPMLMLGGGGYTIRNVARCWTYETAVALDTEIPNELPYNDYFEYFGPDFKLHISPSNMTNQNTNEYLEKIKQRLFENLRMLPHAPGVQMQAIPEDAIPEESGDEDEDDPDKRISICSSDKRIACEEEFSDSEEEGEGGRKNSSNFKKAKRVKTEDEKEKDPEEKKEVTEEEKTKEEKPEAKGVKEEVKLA", "UniProt P70288": "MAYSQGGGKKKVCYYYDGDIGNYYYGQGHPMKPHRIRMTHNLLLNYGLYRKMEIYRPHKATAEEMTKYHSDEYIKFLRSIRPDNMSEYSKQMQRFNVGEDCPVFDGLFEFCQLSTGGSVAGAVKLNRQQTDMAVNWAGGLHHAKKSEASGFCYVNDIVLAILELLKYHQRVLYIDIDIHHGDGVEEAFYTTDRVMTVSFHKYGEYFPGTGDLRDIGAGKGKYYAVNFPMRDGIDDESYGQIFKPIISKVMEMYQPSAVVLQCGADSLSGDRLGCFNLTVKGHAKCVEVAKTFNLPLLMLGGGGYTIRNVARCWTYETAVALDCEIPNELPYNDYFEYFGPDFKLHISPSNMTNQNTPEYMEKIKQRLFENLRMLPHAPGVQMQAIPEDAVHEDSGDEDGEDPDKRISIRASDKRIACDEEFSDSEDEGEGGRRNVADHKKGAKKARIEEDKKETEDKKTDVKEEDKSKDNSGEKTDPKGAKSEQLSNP"}, "source": "patent US20080248994A1", "about": "(GOVERNMENT OF THE UNITED STATES OF AMERICA AS REPRESENTED …, published 2008)", "molecules": {"B1": {"name": "MyoD (endogenous, in extracts of C2C12 cells; also endogenous MyoD of MD3 and CC42 cells) (other, mouse, UniProt P10085 1-318, looked up)", "chain": "MELLSPPLRDIDLTGPDGSLCSFETADDFYDDPCFDSPDLRFFEDLDPRLVHMGALLKPEEHAHFPTAVHPGPGAREDEHVRAPSGHHQAGRCLLWACKACKRKTTNADRRKAATMRERRRLSKVNEAFETLKRCTSSNPNQRLPKVEILRNAIRYIEGLQALLRDQDAAPPGAAAFYAPGPLPPGRGSEHYSGDSDASSPRSNCSDGMMDYSGPPSGPRRQNGYDTAYYSEAARESRPGKSAAVSSLDCLSSIVERISTDSPAAPALLLADAPPESPPGPPEGASLSDTEQGTQTPSPDAAPQCPAGSNPNAIYQVL", "notes": "Transcription factor (bHLH)"}, "B2": {"name": "hypophosphorylated pRb (endogenous, differentiated C2C12 myotubes, DM) (protein, mouse, UniProt P13405 2-921, looked up)", "chain": "PPKAPRRAAAAEPPPPPPPPPREDDPAQDSGPEELPLARLEFEEIEEPEFIALCQKLKVPDHVRERAWLTWEKVSSVDGILEGYIQKKKELWGICIFIAAVDLDEMPFTFTELQKSIETSVYKFFDLLKEIDTSTKVDNAMSRLLKKYNVLCALYSKLERTCELIYLTQPSSALSTEINSMLVLKISWITFLLAKGEVLQMEDDLVISFQLMLCVVDYFIKFSPPALLREPYKTAAIPINGSPRTPRRGQNRSARIAKQLENDTRIIEVLCKEHECNIDEVKNVYFKNFIPFINSLGIVSSNGLPEVESLSKRYEEVYLKNKDLDARLFLDHDKTLQTDPIDSFETERTPRKNNPDEEANVVTPHTPVRTVMNTIQQLMVILNSASDQPSENLISYFNNCTVNPKENILKRVKDVGHIFKEKFANAVGQGCVDIGVQRYKLGVRLYYRVMESMLKSEEERLSIQNFSKLLNDNIFHMSLLACALEVVMATYSRSTLQHLDSGTDLSFPWILNVLNLKAFDFYKVIESFIKVEANLTREMIKHLERCEHRIMESLAWLSDSPLFDLIKQSKDGEGPDNLEPACPLSLPLQGNHTAADMYLSPLRSPKKRTSTTRVNSAANTETQAASAFHTQKPLKSTSLALFYKKVYRLAYLRLNTLCARLLSDHPELEHIIWTLFQHTLQNEYELMRDRHLDQIMMCSMYGICKVKNIDLKFKIIVTAYKDLPHAAQETFKRVLIREEEFDSIIVFYNSVFMQRLKTNILQYASTRPPTLSPIPHIPRSPYKFSSSPLRIPGGNIYISPLKSPYKISEGLPTPTKMTPRSRILVSIGESFGTSEKFQKINQMVCNSDRVLKRSAEGGNPPKPLKKLRFDIEGADEADGSKHLPAESKFQQKLAEMTSTRTRMQKQRMNESKDVSNKEEK", "modifications": "hypophosphorylated (sites not given)"}, "B3": {"name": "myc-MyoD (expressed from a transfected vector in pRb-/- 3T3 cells) (other, UniProt P10085 1-318, looked up)", "chain": "MELLSPPLRDIDLTGPDGSLCSFETADDFYDDPCFDSPDLRFFEDLDPRLVHMGALLKPEEHAHFPTAVHPGPGAREDEHVRAPSGHHQAGRCLLWACKACKRKTTNADRRKAATMRERRRLSKVNEAFETLKRCTSSNPNQRLPKVEILRNAIRYIEGLQALLRDQDAAPPGAAAFYAPGPLPPGRGSEHYSGDSDASSPRSNCSDGMMDYSGPPSGPRRQNGYDTAYYSEAARESRPGKSAAVSSLDCLSSIVERISTDSPAAPALLLADAPPESPPGPPEGASLSDTEQGTQTPSPDAAPQCPAGSNPNAIYQVL", "notes": "also called myc-tagged MyoD; not shown: myc tag"}, "B4": {"name": "GST-pRb wt (protein, UniProt P06400 379-928, looked up, not shown: a dimerising Fc or GST)", "chain": "MNTIQQLMMILNSASDQPSENLISYFNNCTVNPKESILKRVKDIGYIFKEKFAKAVGQGCVEIGSQRYKLGVRLYYRVMESMLKSEEERLSIQNFSKLLNDNIFHMSLLACALEVVMATYSRSTSQNLDSGTDLSFPWILNVLNLKAFDFYKVIESFIKAEGNLTREMIKHLERCEHRIMESLAWLSDSPLFDLIKQSKDREGPTDHLESACPLNLPLQNNHTAADMYLSPVRSPKKKGSTTRVNSTANAETQATSAFQTQKPLKSTSLSLFYKKVYRLAYLRLNTLCERLLSEHPELEHIIWTLFQHTLQNEYELMRDRHLDQIMMCSMYGICKVKNIDLKFKIIVTAYKDLPHAVQETFKRVLIKEEEYDSIIVFYNSVFMQRLKTNILQYASTRPPTLSPIPHIPRSPYKFPSSPLRIPGGNIYISPLKSPYKISEGLPTPTKMTPRSRILVSIGESFGTSEKFQKINQMVCNSDRVLKRSAEGSNPPKPLKKLRFDIEGSDEADGSKHLPGESKFQQKLAEMTSTRTRMQKQKMNDSMDTSNKEEK"}}, "key": {"[1]": {"biological_target": "HDAC1 (endogenous, in extracts of C2C12 cells and other myogenic cells) (mouse) (UniProt O09106)", "assay": "immunoprecipitation of HDAC1 from MyoD-converted pRb-/- p53+/- 3T3 fibroblasts, anti-MyoD Western blot"}, "[2]": {"biological_target": "FLAG-HDAC1 (recombinant, baculovirus expressed, affinity purified) (UniProt Q13547)", "assay": "purified proteins, anti-HDAC1 immunoprecipitation (FIG. 6B)"}, "[3]": {"biological_target": "FLAG-HDAC1 (recombinant, baculovirus expressed, affinity purified) (UniProt Q13547)", "assay": "purified proteins (3 pmol HDAC1, 10 pmol His-MyoD), anti-HDAC1 immunoprecipitation, anti-MyoD blot"}, "[4]": {"biological_target": "HDAC2 (endogenous, C2C12 cells) (mouse) (UniProt P70288)", "assay": "co-immunoprecipitation from C2C12 extracts (data not shown)"}, "[5]": {"biological_target": "Flag-HDAC1 (expressed from a transfected vector in cells) (UniProt Q13547)", "assay": "co-immunoprecipitation from transfected pRb-/- 3T3 cells"}, "[6]": {"biological_target": "Flag-HDAC1 (expressed from a transfected vector in cells) (UniProt Q13547)", "assay": "GST-pRb pre-incubation and anti-Flag IP (FIG. 9B)"}, "[7]": {"biological_target": "Flag-HDAC1 (expressed from a transfected vector in cells) (UniProt Q13547)", "assay": "GST pull-down from extracts of transfected pRb-/- 3T3 cells, anti-Flag Western blot (FIG. 9B, lanes 1 to 5)"}}, "note": "Results are given in words; binding and its absence hold for the method and conditions named. For some assays here: Binding seen in cells or lysates may run through a third protein. Some entries that bind do so weakly or less than the wild type. For some assays here: Sequences can lack the tags named with a protein."}
{"molecule": "MyoD expressed by retrovirus in pRb-/- p53+/- double knock out derived 3T3 fibroblasts (from UniProt P10085 1-318)", "values": [{"measurement": "binding", "setting": "[1]", "value": "binds"}]}
{"molecule": "His-MyoD (recombinant, expressed in bacteria) (from UniProt P10085 1-318)", "values": [{"measurement": "binding", "setting": "[2]", "value": "binds"}, {"measurement": "binding", "setting": "[3]", "value": "binds"}]}
{"molecule": "B1", "values": [{"measurement": "binding", "setting": "[4]", "value": "binds"}]}
{"molecule": "B2", "values": [{"measurement": "binding", "setting": "[4]", "value": "binds"}]}
{"molecule": "B3", "values": [{"measurement": "binding", "setting": "[5]", "value": "binds"}, {"measurement": "binding", "setting": "[6]", "value": "binds"}]}
{"molecule": "B4", "values": [{"measurement": "binding", "setting": "[7]", "value": "binds"}]}
